Here are results for 1 molecule from paper doi:10.1101/2020.10.05.325951.

Amino acid sequences for entries named in this document (tags omitted).
UniProt Q62083: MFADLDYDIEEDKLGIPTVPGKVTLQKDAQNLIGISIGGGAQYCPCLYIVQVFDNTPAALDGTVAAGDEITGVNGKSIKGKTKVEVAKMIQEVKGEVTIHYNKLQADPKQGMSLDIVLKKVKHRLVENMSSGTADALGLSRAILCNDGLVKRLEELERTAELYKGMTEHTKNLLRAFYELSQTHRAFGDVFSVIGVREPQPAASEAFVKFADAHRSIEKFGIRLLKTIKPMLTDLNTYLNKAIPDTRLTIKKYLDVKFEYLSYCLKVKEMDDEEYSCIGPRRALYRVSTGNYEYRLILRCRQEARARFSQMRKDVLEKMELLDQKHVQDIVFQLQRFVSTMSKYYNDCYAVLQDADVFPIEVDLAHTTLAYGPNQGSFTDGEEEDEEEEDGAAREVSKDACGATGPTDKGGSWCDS

The target of the test is Myc-BioID2-PICK1 (mouse (printed as mPICK1)) (UniProt Q62083). The test is described as follows: proximity labelling.

These are yes or no findings as the source states them, for the method shown. Binding seen in cells or lysates may run through a third protein. These calls come from enrichment with a bait or labelling near it, and not all partners need be listed.

B1: syntaxin 6 (protein, UniProt Q63635 1-255)
chain: MSMEDPFFVVKGEVQKAVNTAQGLFQRWTELLQGPSAATREEIDWTTNELRNNLRSIEWDLEDLDETISIVEANPRKFNLDATELSIRKAFITSTRQIVRDMKDQMSASSVQALAERKNRQALLGDSSSQNWDAGVTDRYGRLDRELQLANSHFIEEQQAQQQLIVEQQDEQLELVSGSIGVLKNMSQRIGGELEEQAVMLDDFSHELESTQSRLDNVMKKLAKVSHMTSDRRQWCAIAILFAVLLVVLTLFLVL
Take B1: the binding result is “binds”.
